Reference: US6403864B1, “Precursor polypeptide of a plant growth factor, a gene encoding a precursor polypeptide of a plant growth factor and a method for promotion of plant growth” (Nagoya University, priority 1999, dated 2002)
Where no end group is shown, it is not given here. [ ]: non-standard residue; d: D form. sY = N[C@@H](Cc1ccc(OS(=O)(=O)O)cc1)C(=O)O

Test system: rice Oc cells
Test: LC-MS measurement of PSK-α and its analogs accumulated in conditioned medium of control or transgenic Oc cells
Format: cell-based
Settings: for Accumulation of PSKs in conditioned medium: one week cultivation, mean of three experiments ± SD; for Concentration in CM of the sense transformant relative to control: sense transformant vs control; for Total amount of [Ser^4]PSK-α and -β relative to wild type PSK-α and -β: [Ser^4]mutant transformant CM
Protocol: The amounts of PSK-α and its analogs, released into medium by wild type strain or transformant, was measured by liquid chromatography/ mass spectrometry (LC-MS) analysis. Conditioned medium (CM) derived from 14-day cultured wild or transformed Oc cells was chromatographed on DEAE Sephadex A-25 column. PSK-α and PSK-β contained in 800 and 1,200 mM KCl fractions were adsorbed on Sep-Pak Vac Cartridges, eluted with 30% acetonitrile containing 0.1 % trifluoroacetic acid, and lyophilized. Mass spectra were obtained using a Fisons VG platform quadruple mass spectrometer with electrospray ionization interfaced to a Jasco PU980 HPLC system. The fractions containing PSKs were dissolved in 200 μl of water and separated on a reverse-phase HPLC column (4.6×250 mm) with 10% acetonitrile containing 0.1% trifluoroacetic acid at 1.0 ml/min. The pseudomolecular ions of PSKs were monitored by scanning every 1.9 s in the selective ion monitoring mode. Amino acid sequences of the peptides were determined by Applied Biosystems model 490 sequencer.
Furthermore, OsPSK cDNA was introduced in sense and antisense orientation into Oc cells using the same binary vector. Then the amounts of PSK-α and -β were analyzed by LC-MS. The control or transformed Oc cells (0.8 g) were planted in 100 ml of fresh medium, and the amounts of PSK-α and its analogs were analyzed after one week cultivation. The results indicated by the average values of three independent experiments with standard deviations were shown in Table 1 (unit of concentration: nM). PSK-α and -β accumulated in the CM of the sense transformant were 1.6 times as concentrated as in the control. The increase of PSK secretion was proven to be caused by introduction of the gene. The amounts of PSK-α and -β accumulated in the antisense transformant CM were less than 60% of the mean control level, indicating decrease of PSK secretion.

[1] = Antisense OsPSK transformed Oc cells
[2] = Control Oc cells, 0.8 g cells in 100 ml fresh medium
[3] = Sense OsPSK transformed Oc cells
[4] = [Ser^4]mutant cDNA transformed Oc cells

Row | Substance | Accumulation of PSKs in conditioned medium [1] | Accumulation of PSKs in conditioned medium [2] | Accumulation of PSKs in conditioned medium [3] | Accumulation of PSKs in conditioned medium [4] | Concentration in CM of the sense transformant relative to control | Total amount of [Ser^4]PSK-α and -β relative to wild type PSK-α and -β
1 | [sY]I[sY]T [PSK-β] | 175.8 ± 15.4 nM | 332.7 ± 20.1 nM | 555.7 ± 31.1 nM | 302.5 ± 15.8 nM | 1.6 times | 
2 | Y(SO3H)IY(SO3H)S [[Ser^4]PSK-β] | 0 nM | 0 nM | 0 nM | 105.2 ± 8.9 nM |  | about 34%
3 | Y(SO3H)IY(SO3H)SQ [[Ser^4]PSK-α] | 0 nM | 0 nM | 0 nM | 3.1 ± 0.3 nM |  | about 34%
4 | [sY]I[sY]TQ [PSK-α] | 7.3 ± 0.4 nM | 12.6 ± 1.1 nM | 21.0 ± 1.9 nM | 11.5 ± 0.9 nM | 1.6 times | 
